PubChem BioAssay AID504774 – Drosophila RNAi Screening Center, 2011

Purpose: 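Fly genes whose loss alters survival after alkylation damage to DNA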 (primary screen)
Cells: Drosophila Kc167 cells
Knock-down reagent: long dsRNA against Drosophila genes, about 0.25 µg dsRNA per well
Time to read-out: about 6 days: 3 days knock-down, then 3 days with or without MMS
Challenge: methyl methanesulphonate 0.004% (w/v) for 3 days after knock-down
Detection: 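Viability in wells given MMS, read as ATP luminescence, normalised by quantiles plate by plate and averaged across replicates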
Reading the numbers: mean viability with MMS and viability with MMS: higher = more surviving cells after MMS
In all, the deposit lists about 23,000 reagents; this is a random part of those that have a named target and a result. 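Values are quantile-normalised luminescence on an arbitrary scale; higher means more cells surviving MMS.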 Names joined by + are all predicted targets of the reagent.

The first 4 entries, to show the layout:
| Gene | PubChem SID | mean viability with MMS | viability with MMS, replicate 1 | viability with MMS, replicate 2 |
| --- | --- | --- | --- | --- |
| asl (asterless) | SID104192111 | 3.64e6 | 4.06e6 | 4.23e6 |
| cact (cactus) | SID104183293 | 3.63e6 | 4.08e6 | 4.18e6 |
| Ctps (CTP synthase) | SID104189134 | 3.62e6 | 4.03e6 | 4.16e6 |
| Ctps (CTP synthase) | SID104190520 | 3.49e6 | 4.00e6 | 3.91e6 |

Main list, from the first entry:
| Gene | PubChem SID | mean viability with MMS | viability with MMS, replicate 1 | viability with MMS, replicate 2 |
| --- | --- | --- | --- | --- |
| asl (asterless) | SID104192111 | 3.64e6 | 4.06e6 | 4.23e6 |
| cact (cactus) | SID104183293 | 3.63e6 | 4.08e6 | 4.18e6 |
| Ctps (CTP synthase) | SID104189134 | 3.62e6 | 4.03e6 | 4.16e6 |
| Ctps (CTP synthase) | SID104190520 | 3.49e6 | 4.00e6 | 3.91e6 |
| Ctps (CTP synthase) | SID104190521 | 3.48e6 | 4.00e6 | 3.88e6 |
| Su(var)3-9 (Suppressor of variegation 3-9) | SID104194276 | 3.55e6 | 3.99e6 | 4.06e6 |
| Arglu1 (Arginine and glutamate rich 1) | SID104182701 | 3.41e6 | 3.85e6 | 3.86e6 |
| SMC5 (Structural maintenance of chromosomes 5) | SID104191641 | 3.48e6 | 3.95e6 | 3.93e6 |
| CG10232 | SID104194010 | 3.63e6 | 4.17e6 | 4.07e6 |
| Fen1 (Flap endonuclease 1) | SID104187207 | 3.47e6 | 3.94e6 | 3.91e6 |
| Coq3 (Coenzyme Q3) | SID104182960 | 3.51e6 | 4.12e6 | 3.85e6 |
| Tsp66A + CG42661 + CG42660 | SID104190025 | 3.66e6 | 4.06e6 | 4.25e6 |
| Eh (Eclosion hormone) | SID104196452 | 3.65e6 | 4.11e6 | 4.19e6 |
| CG5321 | SID104199732 | 3.55e6 | 3.94e6 | 4.13e6 |
| CG5321 | SID104202161 | 3.43e6 | 3.99e6 | 3.86e6 |
| CG12780 | SID104185961 | 3.52e6 | 3.93e6 | 4.05e6 |
| Cpr64Ac (Cuticular protein 64Ac) | SID104188254 | 3.55e6 | 4.01e6 | 4.03e6 |
| Eig71Eg (Ecdysone-induced gene 71Eg) | SID104190946 | 3.55e6 | 4.06e6 | 3.99e6 |
| CG32643 | SID104198754 | 3.47e6 | 3.98e6 | 3.92e6 |
| EMC3 (ER membrane protein complex subunit 3) | SID104182781 | 3.38e6 | 3.71e6 | 3.91e6 |
| CG4734 | SID104186677 | 3.66e6 | 4.22e6 | 4.05e6 |
| CG4734 | SID104201646 | 3.58e6 | 4.10e6 | 3.99e6 |
| Dhc93AB (Dynein heavy chain at 93AB) | SID104196436 | 3.40e6 | 3.80e6 | 3.94e6 |
| CG17732 | SID104190075 | 3.57e6 | 3.97e6 | 4.11e6 |
| CG32095 | SID104202029 | 3.45e6 | 4.00e6 | 3.87e6 |
| dmGlut (Dietary and metabolic glutamate transporter) | SID104182627 | 3.33e6 | 3.67e6 | 3.82e6 |
| CG43367 | SID104188091 | 3.57e6 | 3.98e6 | 4.09e6 |
| CG43367 | SID104188093 | 3.53e6 | 4.00e6 | 3.99e6 |
| CG43367 | SID104188101 | 3.42e6 | 3.75e6 | 4.02e6 |
| Leash | SID104195409 | 3.58e6 | 4.14e6 | 3.96e6 |
| emc (extra macrochaetae) | SID104188507 | 1.37e6 | 3.59e6 | 3.63e6 |
| emc (extra macrochaetae) | SID104202595 | 3.67e6 | 4.11e6 | 4.21e6 |
| ZnT33D (Zinc transporter 33D) | SID104182383 | 3.72e6 | 4.30e6 | 4.05e6 |
| eIF3d1 (eukaryotic translation initiation factor 3 subunit d1) | SID104196730 | 3.05e6 | 3.64e6 | 3.61e6 |
| CG42671 | SID104188885 | 1.16e6 | 3.57e6 | 3.55e6 |
| CG42671 | SID104190113 | 3.70e6 | 4.06e6 | 4.26e6 |
| Wdr59 (WD repeat domain 59) | SID104182563 | 3.84e6 | 4.27e6 | 4.47e6 |
| Pfdn1 (Prefoldin 1) | SID104182117 | 3.62e6 | 4.15e6 | 4.03e6 |
| CG3706 | SID104198441 | 3.56e6 | 3.89e6 | 4.18e6 |
| CG1233 | SID104188061 | 3.33e6 | 3.78e6 | 3.81e6 |
| CG7483 | SID104196041 | 3.55e6 | 3.97e6 | 4.09e6 |
| CG7483 | SID104201903 | 2.92e6 | 3.72e6 | 3.69e6 |
| CG5111 | SID104195509 | 3.53e6 | 3.96e6 | 4.03e6 |
| CG14563 | SID104191516 | 3.47e6 | 3.97e6 | 3.86e6 |
| Nprl3 (Nitrogen permease regulator-like 3) | SID104190836 | 3.51e6 | 3.96e6 | 3.99e6 |
| Acph-1 (Acid phosphatase 1) | SID104193895 | 3.33e6 | 3.68e6 | 3.76e6 |
